No constants are given. Whether binding was seen depends on the method and setting. In cells and extracts the contact can be indirect. Some entries that bind do so weakly or less than the wild type. For part of these data: Sequences can lack the tags named with a protein.
T1: endogenous A20 (human (endogenous in MDA-MB-231)) (UniProt P21580)
T1 sequence: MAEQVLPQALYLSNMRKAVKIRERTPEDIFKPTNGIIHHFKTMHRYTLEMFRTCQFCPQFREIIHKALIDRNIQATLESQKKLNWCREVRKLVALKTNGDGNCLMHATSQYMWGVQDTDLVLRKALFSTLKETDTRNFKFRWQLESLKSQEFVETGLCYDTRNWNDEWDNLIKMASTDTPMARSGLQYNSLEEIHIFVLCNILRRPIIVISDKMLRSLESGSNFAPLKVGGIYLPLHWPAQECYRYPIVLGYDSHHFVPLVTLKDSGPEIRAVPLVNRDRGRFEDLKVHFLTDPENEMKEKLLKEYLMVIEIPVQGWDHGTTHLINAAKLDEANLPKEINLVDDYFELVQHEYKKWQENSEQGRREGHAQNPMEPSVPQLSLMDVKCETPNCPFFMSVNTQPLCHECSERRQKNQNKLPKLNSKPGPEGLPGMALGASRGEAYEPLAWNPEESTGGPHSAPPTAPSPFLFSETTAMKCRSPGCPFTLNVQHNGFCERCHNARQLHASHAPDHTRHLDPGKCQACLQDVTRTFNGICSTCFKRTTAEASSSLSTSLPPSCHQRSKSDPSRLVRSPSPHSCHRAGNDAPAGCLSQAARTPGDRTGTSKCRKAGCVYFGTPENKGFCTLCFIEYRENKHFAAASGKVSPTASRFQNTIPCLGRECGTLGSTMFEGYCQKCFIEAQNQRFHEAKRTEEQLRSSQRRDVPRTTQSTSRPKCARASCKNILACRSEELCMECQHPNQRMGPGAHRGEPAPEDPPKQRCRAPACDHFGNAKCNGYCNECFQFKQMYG

Sequences of proteins named here, by UniProt entry; tags and fusion partners are left off.
UniProt Q13490: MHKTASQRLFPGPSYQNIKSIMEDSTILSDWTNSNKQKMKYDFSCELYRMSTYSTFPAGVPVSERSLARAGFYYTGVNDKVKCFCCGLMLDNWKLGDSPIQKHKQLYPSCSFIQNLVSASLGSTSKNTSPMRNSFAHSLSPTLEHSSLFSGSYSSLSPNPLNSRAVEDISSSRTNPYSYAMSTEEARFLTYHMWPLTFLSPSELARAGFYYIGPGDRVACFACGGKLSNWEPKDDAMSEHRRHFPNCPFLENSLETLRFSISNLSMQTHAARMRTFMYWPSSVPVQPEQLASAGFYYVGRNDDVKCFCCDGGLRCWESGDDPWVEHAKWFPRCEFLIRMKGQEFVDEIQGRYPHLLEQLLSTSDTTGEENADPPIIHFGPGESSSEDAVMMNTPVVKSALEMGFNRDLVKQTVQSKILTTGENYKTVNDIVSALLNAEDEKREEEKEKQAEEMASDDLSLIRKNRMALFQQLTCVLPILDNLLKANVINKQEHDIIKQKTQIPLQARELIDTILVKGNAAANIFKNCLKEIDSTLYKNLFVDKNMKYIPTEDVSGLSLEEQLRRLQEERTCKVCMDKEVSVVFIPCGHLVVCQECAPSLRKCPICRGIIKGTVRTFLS
UniProt Q99558: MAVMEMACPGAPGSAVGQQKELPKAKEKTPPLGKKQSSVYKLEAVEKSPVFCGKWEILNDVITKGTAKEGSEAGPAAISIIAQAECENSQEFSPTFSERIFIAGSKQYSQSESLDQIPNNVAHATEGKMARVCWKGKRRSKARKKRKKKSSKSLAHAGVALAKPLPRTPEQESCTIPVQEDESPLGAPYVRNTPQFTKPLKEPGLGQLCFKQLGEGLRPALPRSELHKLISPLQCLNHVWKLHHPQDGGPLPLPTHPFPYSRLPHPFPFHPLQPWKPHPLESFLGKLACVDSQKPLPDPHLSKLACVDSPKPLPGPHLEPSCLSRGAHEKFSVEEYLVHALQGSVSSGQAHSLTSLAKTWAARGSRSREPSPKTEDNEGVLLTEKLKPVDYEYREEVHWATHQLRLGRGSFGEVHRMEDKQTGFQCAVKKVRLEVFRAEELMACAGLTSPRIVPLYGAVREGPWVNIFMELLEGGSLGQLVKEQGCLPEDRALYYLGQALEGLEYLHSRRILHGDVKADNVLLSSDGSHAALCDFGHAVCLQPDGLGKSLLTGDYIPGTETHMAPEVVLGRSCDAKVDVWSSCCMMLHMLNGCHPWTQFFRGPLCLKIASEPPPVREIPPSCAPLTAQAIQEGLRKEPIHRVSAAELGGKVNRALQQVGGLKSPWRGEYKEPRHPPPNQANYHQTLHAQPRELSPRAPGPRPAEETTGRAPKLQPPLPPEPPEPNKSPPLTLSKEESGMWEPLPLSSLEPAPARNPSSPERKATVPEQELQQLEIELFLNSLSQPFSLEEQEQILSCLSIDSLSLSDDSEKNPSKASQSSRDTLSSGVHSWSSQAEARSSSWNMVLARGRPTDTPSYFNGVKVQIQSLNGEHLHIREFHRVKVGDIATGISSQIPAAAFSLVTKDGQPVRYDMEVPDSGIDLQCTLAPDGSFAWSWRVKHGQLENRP
UniProt Q13489: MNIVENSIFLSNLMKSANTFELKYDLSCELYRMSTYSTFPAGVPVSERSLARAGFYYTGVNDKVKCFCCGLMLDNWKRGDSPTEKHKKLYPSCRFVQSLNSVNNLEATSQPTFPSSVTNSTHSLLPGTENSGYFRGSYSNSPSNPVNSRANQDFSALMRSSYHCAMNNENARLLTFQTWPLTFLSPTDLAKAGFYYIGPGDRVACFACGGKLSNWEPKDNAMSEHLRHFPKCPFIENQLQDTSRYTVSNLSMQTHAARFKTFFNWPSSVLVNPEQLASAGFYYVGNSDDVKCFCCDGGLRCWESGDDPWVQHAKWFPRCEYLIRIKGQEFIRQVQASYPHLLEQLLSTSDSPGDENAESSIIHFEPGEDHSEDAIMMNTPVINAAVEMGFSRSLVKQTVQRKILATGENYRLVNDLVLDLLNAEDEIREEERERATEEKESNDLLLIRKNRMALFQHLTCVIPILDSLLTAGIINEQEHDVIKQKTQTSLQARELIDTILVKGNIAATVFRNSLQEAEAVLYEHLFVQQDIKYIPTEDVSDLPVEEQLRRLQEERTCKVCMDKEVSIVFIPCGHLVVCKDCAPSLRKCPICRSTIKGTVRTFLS


Assays:
[1] = biological target: T1, endogenous A20 (human (endogenous in MDA-MB-231)); assay: co-IP; endogenous A20 immunoprecipitated with anti-A20 (control anti-myc) and protein G Sepharose from MDA-MB-231 lysates (TNE buffer), cells untreated or treated with LTα1β2 (500 ng/ml) for 3 hr; immunoblot
[2] = biological target: TAP-tagged cIAP1 (human) (UniProt Q13490); assay: pull-down; TAP-cIAP1 or deletion mutants precipitated from HEK293T lysates on Strep-Tactin beads (partially purified), beads incubated with 0.5 μg GST-ZnF5-7 in TNE buffer with 0.5 mM DTT and 0.1 mg/ml BSA for 3 hr; immunoblot; only the binder purified

binding [1]	binding [2]	Molecule
no binding	–	NF-κB-inducing kinase (endogenous) (from UniProt Q99558 1-947)
binds	–	cellular inhibitor of apoptosis protein 2 (endogenous) (from UniProt Q13489 1-604)
–	binds	GST-A20-ZnF5-7 (domain or fragment, human, UniProt P21580 647-790, looked up, A20, human, fragment aa 647-790 encompassing ZnF5 to ZnF7; cloned in pGEX-6P-1; also called GST-ZnF5-7; source: E. coli DH5α, purified (Glutathione Sepharose 4B), dialyzed with PBS) TASRFQNTIPCLGRECGTLGSTMFEGYCQKCFIEAQNQRFHEAKRTEEQLRSSQRRDVPRTTQSTSRPKCARASCKNILACRSEELCMECQHPNQRMGPGAHRGEPAPEDPPKQRCRAPACDHFGNAKCNGYCNECFQFKQMYG

Source: paper PMC3764444, “Involvement of A20 in the molecular switch that activates the non-canonical NF-кB pathway” (Scientific Reports, 2013)
